Results from PMC7862700.
This is a selection; strong and weak results do not stand in their true shares. At the low end of the ranking the order means little.

What follows are sequences tested against SPI1 (UniProt P17947) (assay: DAPPL (digital affinity profiling via proximity ligation, sequencing)). Conditions: 10 mM Tris-HCl pH 7.5, 50 mM NaCl, 1 mM DTT, 4% glycerol, room temperature, 30 min; GST-TFs on glutathione beads, 16-mer random dsDNA library, 0.1% …; high values mean tight binding; double strand, one strand shown; scale: fold enrichment (6-mer frequency, TF over GST control).
CGTCAG gave a binding signal of 0.847. TGTAGG gave a binding signal of 0.735. GACCAG gave a binding signal of 0.571. AAGAGA showed a binding signal of 0.782. In the case of GGACTG, the binding signal is reported as 0.594. In the case of GAGTAG, the binding signal is reported as 0.494. Sequence AGTCGC has a binding signal of 0.593. With CGTGCA the binding signal was 0.705. TAGCCA showed a binding signal of 0.93. Sequence GCCAGG has a binding signal of 0.39. GGAGTC was tested, and the binding signal was 0.21. GCCGCG showed a binding signal of 0.814. TCAGGA was tested, and the binding signal was 0.851. GGAGGT gave a binding signal of 0.348. CACAGA showed a binding signal of 0.815. Sequence ATCGAG has a binding signal of 0.836. GGCGCT showed a binding signal of 0.665. With GGTGGA the binding signal was 0.579. With GATCGT the binding signal was 0.417. Work on GGCAAA yielded a binding signal of 0.886. GAGTGG was tested, and the binding signal was 0.576. With GAGCGA the binding signal was 0.614. For GTGAGA, the binding signal was 0.343. With GGCCCA the binding signal was 0.859. CGGTCA gave a binding signal of 0.743. Sequence GAGCAC has a binding signal of 0.727. In the case of GAGGAA, the binding signal is reported as 1.64. Sequence GTGTCA has a binding signal of 0.877. TGTGAA showed a binding signal of 0.878. For TGCCGT, the binding signal was 0.786. For AGTCAT, the binding signal was 0.654. GGTTGG gave a binding signal of 0.804. GACAGG showed a binding signal of 0.581. CGTAGT gave a binding signal of 0.792. CACGTC gave a binding signal of 0.907. For CGCGAG, the binding signal was 0.568. GTCGAT was tested, and the binding signal was 0.705. With ACTAGT the binding signal was 0.946. GCGTAA gave a binding signal of 0.884. AAGTGA was tested, and the binding signal was 0.805.
